Test results published in PubChem BioAssay AID2685 (National Center for Advancing Translational Sciences (NCATS), 2010).
This is one part of the list. These are further read-outs of the screen, such as a control signal, another cell line or another target. No call is given for them. Most of these compounds were active or inconclusive in the main read-out, so they are no random draw. Potencies come from curve fits of mixed quality, noted in brackets.

Experiment: qHTS Assay for Lipid Storage Modulators in Drosophila S3 Cells;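 on cell number change: cells counted by Cell Tracker Red CMTPX staining in the red channel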
Conditions: BODIPY lipid droplet fluorescence, 18-24 h; for cell number change: measured here: cell count max response, cells fed with added oleic acid
Summary of the method: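 Laser-scanning cytometry quantifies lipid droplet accumulation (500–530 nm total intensity; droplet/cell object ratio) in oleic acid-fed (400 uM added) Drosophila S3 cells treated with a concentration series. 20 uM Triacsin C defined 100% inhibition.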

[1] = measured here: lipid fluorescence (Fed channel) AC50, cells fed with added oleic acid
[2] = measured here: cell number channel AC50, cells fed with added oleic acid

Compound: CN(CC(=O)Nc1cc(Cl)ccc1Cl)C1CCS(=O)(=O)C1 (centres undefined)
- cell number change: -9.51%
- AC50 [1]: 2.31 µM [rising, partial curve, poor fit]

Compound: Cc1cccc(NS(=O)(=O)c2cc([N+](=O)[O-])ccc2C)n1
- cell number change: 13.7%

Compound: COc1ccc(NC(=O)c2cc(-c3ccncc3)nc3ccc(Br)cc23)cc1OC
- AC50 [1]: 5.8 µM [falling, full curve]

Compound: CC(=O)C1=C(c2ccccc2)NC(=O)NC1c1ccccc1OCC(=O)NCc1ccccc1 (centres undefined)
- AC50 [2]: 3.66 µM [rising, partial curve]

Compound: COc1cc2nc(C3CC3)n(NC(=O)c3ccc(Cl)cc3)c(=O)c2cc1OC
- cell number change: 4.86%

Compound: CCOC(=O)Nc1cccc(OCC(=O)Nc2ccccc2OCC)c1
- cell number change: 43.8%
- AC50 [2]: 5.8 µM [rising, full curve]
- AC50 [1]: 3.66 µM [rising, partial curve]

Compound: CC(C)/C=C1\CCc2c([nH]c3ccccc23)C1=O
- cell number change: 26.5%

Compound: Cc1ccccc1N=C(N)Nc1ccccc1C
- cell number change: -14.2%
- AC50 [1]: 20.6 µM [falling, partial curve, poor fit]

Compound: COc1cc(Nc2ccc(C)cc2)c([N+](=O)[O-])nc1[N+](=O)[O-]
- cell number change: -28.5%
- AC50 [1]: 1.46 µM [falling, full curve, poor fit]

Compound: O=C(CNC(=O)c1ccco1)OCN1C(=O)c2ccccc2C1=O
- cell number change: -1.87%
- AC50 [1]: 2.59 µM [falling, single point]

Compound: Cc1ccc(S(=O)(=O)N2CCN(C(=O)CCC(=O)NCc3ccc(F)cc3)CC2)cc1
- cell number change: -14.1%
- AC50 [1]: 32.6 µM [falling, partial curve, poor fit]

Compound: C=CC[C@@H]1C=C[C@H](O/N=C/[C@@H](NS(=O)(=O)c2ccc(C)cc2)[C@H](C)/C=C/CC(=O)OC)[C@@H](CO)O1
- cell number change: 10.9%
- AC50 [1]: 18.4 µM [rising, partial curve, poor fit]

Compound: CCOc1cc(NS(=O)(=O)CC)c(OCC)cc1NC(=O)c1ccco1
- cell number change: -8.06%

Compound: Cc1c(OCC(=O)N2C[C@H]3C[C@@H](C2)c2cccc(=O)n2C3)ccc2c3c(c(=O)oc12)CCCC3
- cell number change: -8.41%

Compound: CN1c2ccccc2C2(C)CCCC3=Cc4cc([N+](=O)[O-])cc([N+](=O)[O-])c4OC312 (centres undefined)
- cell number change: 79.9%
- AC50 [2]: 29.1 µM [rising, single point]
- AC50 [1]: 14.6 µM [rising, partial curve, poor fit]

Compound: COc1ccc(Nc2nc(C(=O)N3CCc4ccccc4C3)cs2)cc1
- cell number change: 27.6%
- AC50 [2]: 0.146 µM [rising, full curve, poor fit]

Compound: CC(=O)OCC(COC(C)=O)OC(C)=O
- AC50 [1]: 11.6 µM [falling, partial curve]

Compound: CCC(C)Nc1nc(N)c([N+](=O)[O-])c(Nc2cc(OC)ccc2OC)n1 (centres undefined)
- cell number change: 14.9%
- AC50 [2]: 7.31 µM [rising, single point]

Compound: COc1ccc(C2Nc3ccccc3C(=O)N2c2ccc(C)cc2)cc1COc1ccccn1 (centres undefined)
- cell number change: 12.9%
- AC50 [1]: 1.64 µM [rising, partial curve, poor fit]

Compound: O=C(Nc1ccccc1)NC1CC2CCC(C1)N2Cc1nnnn1Cc1ccc2c(c1)OCO2 (centres undefined)
- cell number change: 5.09%
- AC50 [1]: 0.461 µM [rising, partial curve, poor fit]

Compound: O=C(CN(Cc1ccc(F)cc1)S(=O)(=O)c1ccc(S(=O)(=O)N2CCOCC2)cc1)Nc1ccccc1
- cell number change: 0.879%
- AC50 [1]: 0.116 µM [falling, partial curve, poor fit]

Compound: CCCSc1nsc(NC(=O)c2cccnc2OCC)n1
- AC50 [2]: 0.651 µM [rising, single point]
- AC50 [1]: 16.4 µM [rising, partial curve]

Compound: CSc1ccccc1OCc1cc(C(=O)NC(C)Cc2cccc(C)n2)no1 (centres undefined)
- cell number change: -0.862%
- AC50 [1]: 18.4 µM [falling, single point]

Compound: Cc1cc(C)c(NC(=O)CSc2nncn2-c2cccnc2)c(C)c1
- AC50 [1]: 3.66 µM [rising, single point]

Compound: C=CCn1c(SCC(=O)NC2CCCCC2)nnc1C(C)NC(=O)c1cccs1 (centres undefined)
- cell number change: -4.34%
- AC50 [1]: 29.1 µM [falling, single point]

Compound: Cc1ccc(N2CC(C(=O)Nc3nnc(SCC(=O)NCC4CCCO4)s3)CC2=O)cc1 (centres undefined)
- cell number change: -35.1%
- AC50 [2]: 8.2 µM [falling, partial curve, poor fit]
- AC50 [1]: 0.13 µM [rising, full curve, poor fit]

Compound: CCn1ncc([N+](=O)[O-])c1C(=O)Nc1nc2cccc(C)c2s1
- cell number change: 25.4%
- AC50 [1]: 0.82 µM [rising, single point]

Compound: O=C(COc1ccc(F)cc1Br)Nc1ccccc1N1CCOCC1
- cell number change: -24.8%

Compound: COc1ccc(C2NC(=O)c3sc(=S)n(-c4ccccc4)c3N2)cc1 (centres undefined)
- cell number change: 42.1%
- AC50 [2]: 8.2 µM [rising, partial curve]
- AC50 [1]: 6.51 µM [rising, single point]

Compound: CCOC(=O)C1(CCOC)CCN(Cc2ccc(C(=O)OC)cc2)CC1
- cell number change: -36.2%
- AC50 [2]: 32.6 µM [falling, single point]
- AC50 [1]: 23.1 µM [falling, partial curve]

Compound: Cc1nn(-c2ccccc2)nc1CNC(=O)CC(C)(C)C
- cell number change: 19.3%
- AC50 [2]: 6.51 µM [falling, single point]
- AC50 [1]: 7.31 µM [falling, single point]

Compound: O=C(COC(=O)/C=C/c1cccc([N+](=O)[O-])c1)NCCCN1CCCC1=O
- cell number change: 21.5%
- AC50 [2]: 7.31 µM [falling, single point]

Compound: C[C@@H]1CC=C[C@H]2[C@H]1C(=O)N(Cc1ccccc1)[C@H]2c1ccc2ccccc2c1Br
- cell number change: -24.2%
- AC50 [1]: 29.1 µM [falling, single point]

Compound: COC(=O)/C(=C/c1ccco1)NC(=O)c1ccco1
- cell number change: -33.3%
- AC50 [2]: 0.58 µM [falling, full curve]

Compound: CCOC(=O)c1c(NC(=O)C2CCCN(S(=O)(=O)c3ccc(C)cc3)C2)sc2c1CCCC2 (centres undefined)
- cell number change: -32.2%
- AC50 [2]: 0.326 µM [falling, full curve, poor fit]
- AC50 [1]: 6.51 µM [rising, single point]

Compound: COc1cccc(NC(=O)CN(C)C(=O)CSc2nc3ccccc3s2)c1
- cell number change: -16%
- AC50 [1]: 2.31 µM [rising, partial curve, poor fit]
